The results in this text go back to the supplement of paper PMC5836539.

The chains behind the UniProt entries cited, without tags or fusion partners. Where a name states a change or a piece, a line headed by the entry shows the natural chain unless it says otherwise.
UniProt Q9UQ35: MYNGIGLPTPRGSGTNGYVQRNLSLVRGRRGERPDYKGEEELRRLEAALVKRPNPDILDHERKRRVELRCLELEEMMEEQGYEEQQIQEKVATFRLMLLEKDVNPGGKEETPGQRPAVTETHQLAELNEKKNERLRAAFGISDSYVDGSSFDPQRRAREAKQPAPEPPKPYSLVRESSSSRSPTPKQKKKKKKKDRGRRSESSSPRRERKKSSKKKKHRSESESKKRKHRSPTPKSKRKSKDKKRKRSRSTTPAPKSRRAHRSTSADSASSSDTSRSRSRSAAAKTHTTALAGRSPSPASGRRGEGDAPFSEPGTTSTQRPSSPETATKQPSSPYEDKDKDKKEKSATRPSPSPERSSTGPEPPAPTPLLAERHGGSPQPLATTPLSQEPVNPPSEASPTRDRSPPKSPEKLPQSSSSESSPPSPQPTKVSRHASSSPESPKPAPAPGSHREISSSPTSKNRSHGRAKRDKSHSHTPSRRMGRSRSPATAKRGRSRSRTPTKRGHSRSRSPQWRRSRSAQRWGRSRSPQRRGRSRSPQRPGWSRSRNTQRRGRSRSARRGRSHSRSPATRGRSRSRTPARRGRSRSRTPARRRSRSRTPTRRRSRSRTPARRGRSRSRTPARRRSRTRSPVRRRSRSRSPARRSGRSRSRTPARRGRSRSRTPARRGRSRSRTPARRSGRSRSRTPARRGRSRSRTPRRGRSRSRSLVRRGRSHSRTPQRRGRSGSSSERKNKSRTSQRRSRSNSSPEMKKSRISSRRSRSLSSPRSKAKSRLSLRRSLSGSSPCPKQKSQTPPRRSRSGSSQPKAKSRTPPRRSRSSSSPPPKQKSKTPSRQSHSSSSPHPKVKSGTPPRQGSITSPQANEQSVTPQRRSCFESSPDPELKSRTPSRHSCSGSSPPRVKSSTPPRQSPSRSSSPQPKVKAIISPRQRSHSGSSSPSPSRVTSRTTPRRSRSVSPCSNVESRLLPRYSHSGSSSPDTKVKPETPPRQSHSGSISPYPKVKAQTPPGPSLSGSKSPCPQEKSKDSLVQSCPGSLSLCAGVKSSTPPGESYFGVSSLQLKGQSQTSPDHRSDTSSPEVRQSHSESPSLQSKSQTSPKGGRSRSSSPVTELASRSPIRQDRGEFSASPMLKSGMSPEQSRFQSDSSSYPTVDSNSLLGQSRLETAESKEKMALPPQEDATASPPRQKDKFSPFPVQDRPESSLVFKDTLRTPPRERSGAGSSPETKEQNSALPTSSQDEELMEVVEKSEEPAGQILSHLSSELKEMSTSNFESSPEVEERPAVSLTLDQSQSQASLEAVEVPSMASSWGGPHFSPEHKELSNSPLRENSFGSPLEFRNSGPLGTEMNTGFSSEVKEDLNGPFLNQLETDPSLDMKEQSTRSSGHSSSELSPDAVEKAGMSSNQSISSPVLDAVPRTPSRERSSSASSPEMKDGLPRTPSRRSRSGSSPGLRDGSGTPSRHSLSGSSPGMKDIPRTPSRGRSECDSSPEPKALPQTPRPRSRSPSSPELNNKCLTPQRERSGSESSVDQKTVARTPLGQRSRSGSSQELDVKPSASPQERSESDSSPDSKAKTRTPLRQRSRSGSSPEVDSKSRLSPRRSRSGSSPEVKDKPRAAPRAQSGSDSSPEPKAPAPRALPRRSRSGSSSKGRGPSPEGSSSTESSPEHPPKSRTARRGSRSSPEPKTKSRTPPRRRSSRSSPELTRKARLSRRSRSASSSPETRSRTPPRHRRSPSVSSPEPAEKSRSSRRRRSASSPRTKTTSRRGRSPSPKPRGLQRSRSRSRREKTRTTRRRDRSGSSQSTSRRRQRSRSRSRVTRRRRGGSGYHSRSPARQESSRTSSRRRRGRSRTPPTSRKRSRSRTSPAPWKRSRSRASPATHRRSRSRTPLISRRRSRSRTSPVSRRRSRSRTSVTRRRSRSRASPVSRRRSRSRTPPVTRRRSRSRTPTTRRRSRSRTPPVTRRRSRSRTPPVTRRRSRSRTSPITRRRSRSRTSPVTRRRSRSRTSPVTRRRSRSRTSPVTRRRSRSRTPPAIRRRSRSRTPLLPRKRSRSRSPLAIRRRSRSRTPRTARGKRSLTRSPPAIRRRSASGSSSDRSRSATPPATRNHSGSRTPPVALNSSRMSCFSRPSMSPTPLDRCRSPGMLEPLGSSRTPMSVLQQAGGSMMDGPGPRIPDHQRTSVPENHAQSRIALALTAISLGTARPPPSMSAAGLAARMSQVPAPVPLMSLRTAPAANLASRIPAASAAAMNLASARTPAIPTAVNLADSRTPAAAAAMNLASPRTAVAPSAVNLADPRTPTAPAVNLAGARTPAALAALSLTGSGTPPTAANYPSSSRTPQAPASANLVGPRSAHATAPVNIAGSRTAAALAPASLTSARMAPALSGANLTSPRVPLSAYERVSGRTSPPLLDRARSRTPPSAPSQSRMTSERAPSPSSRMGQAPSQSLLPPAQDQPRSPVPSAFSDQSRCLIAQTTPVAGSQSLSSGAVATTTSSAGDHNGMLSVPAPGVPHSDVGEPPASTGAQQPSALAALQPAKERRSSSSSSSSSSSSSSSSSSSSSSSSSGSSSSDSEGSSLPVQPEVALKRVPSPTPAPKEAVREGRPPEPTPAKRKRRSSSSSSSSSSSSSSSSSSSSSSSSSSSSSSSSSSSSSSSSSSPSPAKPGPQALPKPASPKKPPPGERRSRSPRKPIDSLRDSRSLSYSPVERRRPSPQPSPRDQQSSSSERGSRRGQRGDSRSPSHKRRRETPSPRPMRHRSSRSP
UniProt Q13435: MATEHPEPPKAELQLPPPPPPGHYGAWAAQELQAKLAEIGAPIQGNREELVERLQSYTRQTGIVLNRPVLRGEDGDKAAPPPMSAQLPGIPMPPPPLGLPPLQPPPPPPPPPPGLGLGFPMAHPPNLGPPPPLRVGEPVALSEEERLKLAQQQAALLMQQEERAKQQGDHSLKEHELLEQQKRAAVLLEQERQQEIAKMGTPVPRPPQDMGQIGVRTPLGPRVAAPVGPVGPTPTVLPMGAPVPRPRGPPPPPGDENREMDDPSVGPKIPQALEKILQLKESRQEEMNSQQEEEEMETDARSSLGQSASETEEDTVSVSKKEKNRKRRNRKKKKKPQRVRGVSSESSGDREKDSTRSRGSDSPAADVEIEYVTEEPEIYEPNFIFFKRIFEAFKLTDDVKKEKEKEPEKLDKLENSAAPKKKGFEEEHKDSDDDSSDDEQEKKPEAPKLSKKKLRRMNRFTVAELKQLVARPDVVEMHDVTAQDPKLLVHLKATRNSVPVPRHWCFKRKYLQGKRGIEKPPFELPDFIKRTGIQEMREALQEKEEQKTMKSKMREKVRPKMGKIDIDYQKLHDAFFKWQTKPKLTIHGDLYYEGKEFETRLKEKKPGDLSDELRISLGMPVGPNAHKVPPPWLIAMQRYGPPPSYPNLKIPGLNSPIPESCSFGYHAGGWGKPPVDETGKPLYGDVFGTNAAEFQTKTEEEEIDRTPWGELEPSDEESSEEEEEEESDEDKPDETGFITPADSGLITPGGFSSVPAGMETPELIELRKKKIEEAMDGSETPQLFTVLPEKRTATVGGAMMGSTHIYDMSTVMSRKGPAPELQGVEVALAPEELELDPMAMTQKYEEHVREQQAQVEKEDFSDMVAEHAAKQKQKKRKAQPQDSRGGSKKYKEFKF
UniProt Q8IWZ8: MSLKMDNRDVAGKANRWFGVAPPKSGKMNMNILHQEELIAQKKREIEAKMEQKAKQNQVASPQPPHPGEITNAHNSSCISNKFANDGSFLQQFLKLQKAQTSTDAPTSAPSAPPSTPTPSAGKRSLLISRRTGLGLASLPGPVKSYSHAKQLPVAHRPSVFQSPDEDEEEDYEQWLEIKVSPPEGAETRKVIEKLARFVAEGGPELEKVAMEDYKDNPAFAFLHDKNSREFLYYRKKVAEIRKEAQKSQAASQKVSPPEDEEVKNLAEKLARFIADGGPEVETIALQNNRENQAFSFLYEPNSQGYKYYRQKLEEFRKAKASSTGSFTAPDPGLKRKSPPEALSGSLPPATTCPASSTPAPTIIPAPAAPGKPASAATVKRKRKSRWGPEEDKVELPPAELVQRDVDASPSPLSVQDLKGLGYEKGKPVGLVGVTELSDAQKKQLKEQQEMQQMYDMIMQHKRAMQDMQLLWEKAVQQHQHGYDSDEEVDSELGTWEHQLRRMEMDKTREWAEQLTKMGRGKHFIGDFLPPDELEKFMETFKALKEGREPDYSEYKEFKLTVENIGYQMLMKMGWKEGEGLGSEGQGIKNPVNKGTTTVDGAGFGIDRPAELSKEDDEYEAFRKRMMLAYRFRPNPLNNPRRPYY
UniProt Q12888: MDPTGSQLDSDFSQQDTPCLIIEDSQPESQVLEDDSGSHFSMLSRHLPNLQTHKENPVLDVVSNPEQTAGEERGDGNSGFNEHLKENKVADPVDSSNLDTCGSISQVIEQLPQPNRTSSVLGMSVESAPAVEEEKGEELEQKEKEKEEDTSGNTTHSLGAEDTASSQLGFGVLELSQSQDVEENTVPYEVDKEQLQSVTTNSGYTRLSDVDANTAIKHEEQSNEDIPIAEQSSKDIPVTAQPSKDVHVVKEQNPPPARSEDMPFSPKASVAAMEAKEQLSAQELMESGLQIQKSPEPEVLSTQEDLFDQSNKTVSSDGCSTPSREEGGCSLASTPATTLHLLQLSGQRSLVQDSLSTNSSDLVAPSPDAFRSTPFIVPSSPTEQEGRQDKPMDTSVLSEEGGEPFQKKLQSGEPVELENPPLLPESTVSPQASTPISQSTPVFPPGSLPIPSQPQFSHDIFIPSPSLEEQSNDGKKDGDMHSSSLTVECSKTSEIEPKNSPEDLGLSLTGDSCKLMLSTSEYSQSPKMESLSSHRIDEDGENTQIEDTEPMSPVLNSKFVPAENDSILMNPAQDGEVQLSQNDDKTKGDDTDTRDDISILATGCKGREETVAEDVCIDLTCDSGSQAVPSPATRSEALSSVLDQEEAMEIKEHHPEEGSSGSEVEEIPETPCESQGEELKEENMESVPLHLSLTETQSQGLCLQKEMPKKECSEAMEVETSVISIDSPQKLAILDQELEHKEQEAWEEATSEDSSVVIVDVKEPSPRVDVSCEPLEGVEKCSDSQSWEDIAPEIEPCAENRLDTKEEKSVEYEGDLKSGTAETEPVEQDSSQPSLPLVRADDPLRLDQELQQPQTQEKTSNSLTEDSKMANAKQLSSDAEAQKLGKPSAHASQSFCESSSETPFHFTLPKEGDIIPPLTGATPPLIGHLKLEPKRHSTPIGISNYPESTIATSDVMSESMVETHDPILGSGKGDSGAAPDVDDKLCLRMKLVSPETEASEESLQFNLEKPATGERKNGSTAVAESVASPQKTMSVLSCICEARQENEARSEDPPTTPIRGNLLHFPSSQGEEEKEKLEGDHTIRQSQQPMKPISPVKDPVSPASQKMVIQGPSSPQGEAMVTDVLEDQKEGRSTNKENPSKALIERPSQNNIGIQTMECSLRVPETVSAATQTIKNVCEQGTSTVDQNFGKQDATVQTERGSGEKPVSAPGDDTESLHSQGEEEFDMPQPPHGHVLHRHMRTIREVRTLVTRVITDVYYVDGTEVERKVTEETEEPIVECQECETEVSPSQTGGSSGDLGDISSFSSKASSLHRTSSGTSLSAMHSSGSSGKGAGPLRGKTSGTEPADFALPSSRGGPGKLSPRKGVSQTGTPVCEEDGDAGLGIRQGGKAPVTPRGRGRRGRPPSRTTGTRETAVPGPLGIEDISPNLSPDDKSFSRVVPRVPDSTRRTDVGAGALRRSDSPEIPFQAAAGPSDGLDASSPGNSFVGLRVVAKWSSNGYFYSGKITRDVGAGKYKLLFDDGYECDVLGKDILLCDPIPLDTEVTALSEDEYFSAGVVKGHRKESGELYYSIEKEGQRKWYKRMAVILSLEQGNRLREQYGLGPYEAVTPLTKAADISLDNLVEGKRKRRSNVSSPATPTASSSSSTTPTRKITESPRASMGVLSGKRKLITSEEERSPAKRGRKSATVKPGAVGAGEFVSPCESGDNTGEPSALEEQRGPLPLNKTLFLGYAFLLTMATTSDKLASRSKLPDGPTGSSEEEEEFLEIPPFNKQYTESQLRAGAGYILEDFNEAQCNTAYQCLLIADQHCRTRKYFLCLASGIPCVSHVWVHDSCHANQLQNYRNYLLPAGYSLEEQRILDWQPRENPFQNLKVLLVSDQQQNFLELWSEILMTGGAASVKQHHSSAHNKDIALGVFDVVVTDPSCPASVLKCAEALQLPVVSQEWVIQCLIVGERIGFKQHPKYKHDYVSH
UniProt Q9H1E3: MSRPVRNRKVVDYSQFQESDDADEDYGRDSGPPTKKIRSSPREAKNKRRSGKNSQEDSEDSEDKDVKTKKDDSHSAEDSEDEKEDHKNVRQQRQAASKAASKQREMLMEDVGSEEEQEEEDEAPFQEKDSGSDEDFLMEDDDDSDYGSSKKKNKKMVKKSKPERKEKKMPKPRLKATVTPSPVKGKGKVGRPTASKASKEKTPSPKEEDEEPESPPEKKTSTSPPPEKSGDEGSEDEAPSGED

± gives the standard deviation of the averaged measurements. Repeats in this data set agree poorly, so a single value says little.

Compound in this test: CC[C@@H](C)Nc1cc(C(=O)N[C@H]2C[C@H]3CC[C@@H](C2)N3c2ccc(C(=O)C3CC3)cn2)c(C)cc1C(N)=O [XL888]
The experiment in a line: phosphopeptide melting temperature shift (XL888 minus DMSO); higher = stabilised by drug treatment. The following applies: 100 µM; treatment time 2 h; layout: intact cells; SK-Mel 28. The method, then: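 Phospho-TPP in intact SK-Mel 28 cells treated with 100 uM XL888 or DMSO for 2 h, heated at 10 temperatures (37-67 C) for 3 min, soluble fraction TMT10plex-labelled and TiO2 phospho-enriched. Melting curves were fitted per phosphopeptide; the value is the melting point difference (drug minus vehicle) in each of two biological replicates.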
Take “UniProt Q02750_phosphosite_386 (phosphosite position: 386)”: the “phosphopeptide melting temperature shift” value stood at 2.17 °C.

As to “ADNP phosphosite_953 (phosphosite position: 953) (UniProt Q9H2P0)”, the “phosphopeptide melting temperature shift” value was found to be 3.06 ± 2.6 °C.

For “EEF2K phosphosite_470 (phosphosite position: 470) (UniProt O00418)”, the “phosphopeptide melting temperature shift” value was found to be 0.963 °C.

Take “UniProt Q15365_phosphosite_190 (phosphosite position: 190)”: the “phosphopeptide melting temperature shift” value was 1.34 ± 0.37 °C.

“TOM1 phosphosite_359 (phosphosite position: 359) (UniProt O60784)”: the “phosphopeptide melting temperature shift” value is -0.399 ± 0.33 °C.

On to “WWTR1 phosphosite_66 (phosphosite position: 66) (UniProt Q9GZV5)”, for which the “phosphopeptide melting temperature shift” value was -1.43 °C.

With “LIMA1 phosphosite_132 (phosphosite position: 132) (UniProt Q9UHB6)”, the “phosphopeptide melting temperature shift” value is -0.932 ± 1.3 °C.

Turning to “ALS2 phosphosite_483 (phosphosite position: 483) (UniProt Q96Q42)”, the “phosphopeptide melting temperature shift” value turned out to be 0.225 ± 0.76 °C.

For the target “ALS2 phosphosite_1464 (phosphosite position: 1464) (UniProt Q96Q42)”, the “phosphopeptide melting temperature shift” value is 2.48 °C.

“UniProt Q86YS7_phosphosite_661 (phosphosite position: 661)”: the “phosphopeptide melting temperature shift” value was found to be 0.549 °C.

As to “UniProt Q9NYF8-3_phosphosite_288 (phosphosite position: 288)”, the “phosphopeptide melting temperature shift” value came out at 1.4 °C.

For the target “CRTC2 phosphosite_70 (phosphosite position: 70) (UniProt Q53ET0)”, the “phosphopeptide melting temperature shift” value is -0.902 ± 1.6 °C.

As for “UniProt Q5T200-2_phosphosite_325 (phosphosite position: 325)”, the “phosphopeptide melting temperature shift” value worked out at 1.99 °C.

Take “MAP1B phosphosite_1782 (phosphosite position: 1782) (UniProt P46821)”: the “phosphopeptide melting temperature shift” value is 0.822 ± 0.58 °C.

For “YBX1 phosphosite_176 (phosphosite position: 176) (UniProt P67809)”, the “phosphopeptide melting temperature shift” value worked out at 1.16 °C.

Take “SRRM2 phosphosite_1318 (phosphosite position: 1318) (UniProt Q9UQ35)”: the “phosphopeptide melting temperature shift” value came out at 2.008 ± 0.011 °C.

As for “UniProt Q96FT9-3_phosphosite_78 (phosphosite position: 78)”, the “phosphopeptide melting temperature shift” value was determined as 4.62 °C.

For the target “SF3B2 phosphosite_431 (phosphosite position: 431) (UniProt Q13435)”, the “phosphopeptide melting temperature shift” value amounted to 4.51 °C.

Regarding “ATG16L1 phosphosite_269 (phosphosite position: 269) (UniProt Q676U5)”, the “phosphopeptide melting temperature shift” value worked out at 1.05 °C.

Consider “UniProt Q8IWQ3-4_phosphosite_294 (phosphosite position: 294)”, for which the “phosphopeptide melting temperature shift” value came out at 1.25 ± 0.76 °C.

With “ARFGEF2 phosphosite_218 (phosphosite position: 218) (UniProt Q9Y6D5)”, the “phosphopeptide melting temperature shift” value turned out to be 0.92 °C.

Turning to “UniProt P13807-2_phosphosite_593 (phosphosite position: 593)”, the “phosphopeptide melting temperature shift” value was 1.1 ± 1.1 °C.

With “EPS15L1 phosphosite_241 (phosphosite position: 241) (UniProt Q9UBC2)”, the “phosphopeptide melting temperature shift” value came to 2.59 ± 1.9 °C.

In the case of “UniProt Q8IWZ8_phosphosite_485 (phosphosite position: 485)”, the “phosphopeptide melting temperature shift” value was -0.355 °C.

As to “CHD4 phosphosite_515 (phosphosite position: 515) (UniProt Q14839)”, the “phosphopeptide melting temperature shift” value stood at 0.505 ± 0.15 °C.

“TP53BP1 phosphosite_366 (phosphosite position: 366) (UniProt Q12888)”: the “phosphopeptide melting temperature shift” value came out at 1.22 °C.

Consider “ACTG1 phosphosite_323 (phosphosite position: 323) (UniProt P63261)”, for which the “phosphopeptide melting temperature shift” value came out at 0.762 ± 0.26 °C.

Consider “TP53BP1 phosphosite_500 (phosphosite position: 500) (UniProt Q12888)”, for which the “phosphopeptide melting temperature shift” value stood at 1.65 ± 0.04 °C.

“UHRF2 phosphosite_667 (phosphosite position: 667) (UniProt Q96PU4)”: the “phosphopeptide melting temperature shift” value was -2.33 °C.

Take “UniProt Q9UPZ3-2_phosphosite_347 (phosphosite position: 347)”: the “phosphopeptide melting temperature shift” value was -7.23 °C.

As to “UniProt Q86YS7_phosphosite_281 (phosphosite position: 281)”, the “phosphopeptide melting temperature shift” value is 0.61 ± 0.31 °C.

As for “UniProt P62995_phosphosite_266 (phosphosite position: 266)”, the “phosphopeptide melting temperature shift” value was found to be 5.43 °C.

As for “PRPSAP1 phosphosite_215 (phosphosite position: 215) (UniProt Q14558)”, the “phosphopeptide melting temperature shift” value was -0.763 ± 0.77 °C.

On to “UniProt Q8IW50-3_phosphosite_87 (phosphosite position: 87)”, for which the “phosphopeptide melting temperature shift” value was found to be 1.57 ± 0.66 °C.

As for “UniProt P78559_phosphosite_667 (phosphosite position: 667)”, the “phosphopeptide melting temperature shift” value was found to be 0.831 °C.

“SRRM2 phosphosite_1387 (phosphosite position: 1387) (UniProt Q9UQ35)”: the “phosphopeptide melting temperature shift” value came to 1.44 °C.

With “NUCKS1 phosphosite_113 (phosphosite position: 113) (UniProt Q9H1E3)”, the “phosphopeptide melting temperature shift” value was -4.9 °C.

In the case of “UniProt Q92974-3_phosphosite_620 (phosphosite position: 620)”, the “phosphopeptide melting temperature shift” value amounted to 2.2 ± 1.1 °C.

As for “UniProt O94826_phosphosite_91 (phosphosite position: 91)”, the “phosphopeptide melting temperature shift” value turned out to be 1.09 ± 0.34 °C.

Turning to “UniProt Q15139_phosphosite_208 (phosphosite position: 208)”, the “phosphopeptide melting temperature shift” value was 2.03 °C.

Take “TNKS1BP1 phosphosite_1024 (phosphosite position: 1024) (UniProt Q9C0C2)”: the “phosphopeptide melting temperature shift” value was found to be 1.97 ± 1.9 °C.

For “SRRM2 phosphosite_1732 (phosphosite position: 1732) (UniProt Q9UQ35)”, the “phosphopeptide melting temperature shift” value amounted to 5.91 °C.

Turning to “UniProt P52701-2_phosphosite_137 (phosphosite position: 137)”, the “phosphopeptide melting temperature shift” value is -0.527 ± 2.7 °C.

For the target “UniProt Q8IVL1-5_phosphosite_184 (phosphosite position: 184)”, the “phosphopeptide melting temperature shift” value was -0.788 °C.

As to “TP53BP1 phosphosite_580 (phosphosite position: 580) (UniProt Q12888)”, the “phosphopeptide melting temperature shift” value came to 2.18 ± 1 °C.

For “UniProt Q9NZM3-4_phosphosite_889 (phosphosite position: 889)”, the “phosphopeptide melting temperature shift” value stood at 1.99 ± 0.62 °C.

As for “UniProt Q96JM3_phosphosite_445 (phosphosite position: 445)”, the “phosphopeptide melting temperature shift” value is 3.91 °C.

As to “UniProt Q8TDJ6-2_phosphosite_473 (phosphosite position: 473)”, the “phosphopeptide melting temperature shift” value was found to be 2.17 °C.

For the target “UniProt Q6IN85-2_phosphosite_117 (phosphosite position: 117)”, the “phosphopeptide melting temperature shift” value worked out at 0.477 °C.

As to “MED1 phosphosite_1481 (phosphosite position: 1481) (UniProt Q15648)”, the “phosphopeptide melting temperature shift” value is -0.963 ± 0.56 °C.
